Assay results reported in article PMC8551335.
These are yes or no findings as the source states them, for the method shown. In cells and extracts the contact can be indirect. Some entries that bind do so weakly or less than the wild type. For some of these results: Sequences can lack the tags named with a protein.

Protein sequences, listed by entry. Tags and fused reporters are not part of them.
UniProt Q13315: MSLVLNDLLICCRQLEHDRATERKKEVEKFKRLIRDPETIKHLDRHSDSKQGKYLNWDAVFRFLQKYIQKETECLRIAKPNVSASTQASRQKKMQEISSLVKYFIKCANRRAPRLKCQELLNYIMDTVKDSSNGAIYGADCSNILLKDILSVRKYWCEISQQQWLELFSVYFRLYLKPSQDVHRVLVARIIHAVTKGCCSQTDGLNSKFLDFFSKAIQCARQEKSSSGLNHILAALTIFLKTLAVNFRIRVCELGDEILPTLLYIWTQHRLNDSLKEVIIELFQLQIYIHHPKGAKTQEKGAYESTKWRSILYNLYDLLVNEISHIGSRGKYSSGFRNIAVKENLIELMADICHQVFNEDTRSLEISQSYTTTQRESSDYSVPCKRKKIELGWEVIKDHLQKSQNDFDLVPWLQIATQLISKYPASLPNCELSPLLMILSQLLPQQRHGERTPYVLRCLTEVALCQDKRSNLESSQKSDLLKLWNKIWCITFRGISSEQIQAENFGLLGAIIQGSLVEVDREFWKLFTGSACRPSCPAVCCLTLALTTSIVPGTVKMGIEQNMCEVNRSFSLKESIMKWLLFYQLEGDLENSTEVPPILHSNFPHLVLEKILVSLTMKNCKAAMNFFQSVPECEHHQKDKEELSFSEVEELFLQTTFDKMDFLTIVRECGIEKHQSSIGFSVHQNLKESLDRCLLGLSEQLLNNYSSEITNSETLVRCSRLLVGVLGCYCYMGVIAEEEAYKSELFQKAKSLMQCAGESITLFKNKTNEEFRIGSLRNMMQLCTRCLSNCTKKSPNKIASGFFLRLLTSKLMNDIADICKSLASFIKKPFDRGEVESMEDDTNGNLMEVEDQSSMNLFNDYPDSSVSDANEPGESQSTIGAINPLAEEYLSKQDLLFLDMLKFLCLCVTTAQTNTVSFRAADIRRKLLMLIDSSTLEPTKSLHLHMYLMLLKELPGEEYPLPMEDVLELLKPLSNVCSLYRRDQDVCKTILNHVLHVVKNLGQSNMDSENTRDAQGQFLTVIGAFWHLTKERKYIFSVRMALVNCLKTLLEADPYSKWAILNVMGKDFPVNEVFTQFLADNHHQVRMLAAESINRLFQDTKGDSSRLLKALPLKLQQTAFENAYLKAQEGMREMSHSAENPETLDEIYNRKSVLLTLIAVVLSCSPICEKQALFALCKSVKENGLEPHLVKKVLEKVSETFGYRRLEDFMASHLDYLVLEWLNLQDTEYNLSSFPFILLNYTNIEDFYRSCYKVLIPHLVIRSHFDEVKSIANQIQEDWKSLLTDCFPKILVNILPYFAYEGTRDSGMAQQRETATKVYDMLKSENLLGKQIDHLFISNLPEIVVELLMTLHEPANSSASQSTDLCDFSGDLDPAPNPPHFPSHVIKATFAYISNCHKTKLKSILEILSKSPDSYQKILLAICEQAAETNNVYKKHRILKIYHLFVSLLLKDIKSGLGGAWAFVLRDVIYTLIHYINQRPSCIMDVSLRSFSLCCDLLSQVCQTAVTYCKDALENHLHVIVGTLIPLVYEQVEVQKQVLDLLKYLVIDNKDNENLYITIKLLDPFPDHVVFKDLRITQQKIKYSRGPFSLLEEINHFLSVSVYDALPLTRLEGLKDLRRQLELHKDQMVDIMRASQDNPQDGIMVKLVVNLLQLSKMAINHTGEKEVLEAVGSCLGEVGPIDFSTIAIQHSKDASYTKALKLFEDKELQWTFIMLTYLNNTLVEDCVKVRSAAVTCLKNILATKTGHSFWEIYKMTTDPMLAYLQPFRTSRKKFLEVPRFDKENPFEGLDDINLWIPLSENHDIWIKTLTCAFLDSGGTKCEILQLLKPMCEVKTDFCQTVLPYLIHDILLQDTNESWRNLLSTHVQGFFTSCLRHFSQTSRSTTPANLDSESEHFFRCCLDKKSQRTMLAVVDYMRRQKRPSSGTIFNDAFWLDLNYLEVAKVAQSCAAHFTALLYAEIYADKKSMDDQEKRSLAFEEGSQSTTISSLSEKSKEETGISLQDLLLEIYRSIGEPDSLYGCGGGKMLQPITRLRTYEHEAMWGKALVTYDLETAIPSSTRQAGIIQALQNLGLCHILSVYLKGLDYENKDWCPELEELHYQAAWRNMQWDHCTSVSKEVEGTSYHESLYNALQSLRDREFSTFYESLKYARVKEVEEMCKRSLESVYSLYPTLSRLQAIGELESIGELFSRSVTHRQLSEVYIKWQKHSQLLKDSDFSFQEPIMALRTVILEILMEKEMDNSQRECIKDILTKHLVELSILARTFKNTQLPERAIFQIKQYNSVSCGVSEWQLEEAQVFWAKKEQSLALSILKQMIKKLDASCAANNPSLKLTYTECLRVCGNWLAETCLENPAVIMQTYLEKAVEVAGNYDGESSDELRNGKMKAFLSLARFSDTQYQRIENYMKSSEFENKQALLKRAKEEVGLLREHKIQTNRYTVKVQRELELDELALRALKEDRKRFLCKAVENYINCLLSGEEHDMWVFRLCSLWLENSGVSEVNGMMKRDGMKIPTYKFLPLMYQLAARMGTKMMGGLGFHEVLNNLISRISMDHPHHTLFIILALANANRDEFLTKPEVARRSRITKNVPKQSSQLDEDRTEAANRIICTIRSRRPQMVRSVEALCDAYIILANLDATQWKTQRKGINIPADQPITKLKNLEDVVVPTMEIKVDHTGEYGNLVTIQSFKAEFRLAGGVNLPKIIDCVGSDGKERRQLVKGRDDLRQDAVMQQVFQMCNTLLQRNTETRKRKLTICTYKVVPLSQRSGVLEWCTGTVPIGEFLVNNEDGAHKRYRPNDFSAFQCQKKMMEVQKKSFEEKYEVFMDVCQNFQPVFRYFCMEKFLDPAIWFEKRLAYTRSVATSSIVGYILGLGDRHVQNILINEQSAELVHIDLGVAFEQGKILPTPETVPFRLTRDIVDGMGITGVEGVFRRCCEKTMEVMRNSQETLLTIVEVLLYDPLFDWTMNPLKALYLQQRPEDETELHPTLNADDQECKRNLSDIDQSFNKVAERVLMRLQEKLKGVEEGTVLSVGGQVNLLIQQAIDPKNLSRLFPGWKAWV
UniProt Q62388: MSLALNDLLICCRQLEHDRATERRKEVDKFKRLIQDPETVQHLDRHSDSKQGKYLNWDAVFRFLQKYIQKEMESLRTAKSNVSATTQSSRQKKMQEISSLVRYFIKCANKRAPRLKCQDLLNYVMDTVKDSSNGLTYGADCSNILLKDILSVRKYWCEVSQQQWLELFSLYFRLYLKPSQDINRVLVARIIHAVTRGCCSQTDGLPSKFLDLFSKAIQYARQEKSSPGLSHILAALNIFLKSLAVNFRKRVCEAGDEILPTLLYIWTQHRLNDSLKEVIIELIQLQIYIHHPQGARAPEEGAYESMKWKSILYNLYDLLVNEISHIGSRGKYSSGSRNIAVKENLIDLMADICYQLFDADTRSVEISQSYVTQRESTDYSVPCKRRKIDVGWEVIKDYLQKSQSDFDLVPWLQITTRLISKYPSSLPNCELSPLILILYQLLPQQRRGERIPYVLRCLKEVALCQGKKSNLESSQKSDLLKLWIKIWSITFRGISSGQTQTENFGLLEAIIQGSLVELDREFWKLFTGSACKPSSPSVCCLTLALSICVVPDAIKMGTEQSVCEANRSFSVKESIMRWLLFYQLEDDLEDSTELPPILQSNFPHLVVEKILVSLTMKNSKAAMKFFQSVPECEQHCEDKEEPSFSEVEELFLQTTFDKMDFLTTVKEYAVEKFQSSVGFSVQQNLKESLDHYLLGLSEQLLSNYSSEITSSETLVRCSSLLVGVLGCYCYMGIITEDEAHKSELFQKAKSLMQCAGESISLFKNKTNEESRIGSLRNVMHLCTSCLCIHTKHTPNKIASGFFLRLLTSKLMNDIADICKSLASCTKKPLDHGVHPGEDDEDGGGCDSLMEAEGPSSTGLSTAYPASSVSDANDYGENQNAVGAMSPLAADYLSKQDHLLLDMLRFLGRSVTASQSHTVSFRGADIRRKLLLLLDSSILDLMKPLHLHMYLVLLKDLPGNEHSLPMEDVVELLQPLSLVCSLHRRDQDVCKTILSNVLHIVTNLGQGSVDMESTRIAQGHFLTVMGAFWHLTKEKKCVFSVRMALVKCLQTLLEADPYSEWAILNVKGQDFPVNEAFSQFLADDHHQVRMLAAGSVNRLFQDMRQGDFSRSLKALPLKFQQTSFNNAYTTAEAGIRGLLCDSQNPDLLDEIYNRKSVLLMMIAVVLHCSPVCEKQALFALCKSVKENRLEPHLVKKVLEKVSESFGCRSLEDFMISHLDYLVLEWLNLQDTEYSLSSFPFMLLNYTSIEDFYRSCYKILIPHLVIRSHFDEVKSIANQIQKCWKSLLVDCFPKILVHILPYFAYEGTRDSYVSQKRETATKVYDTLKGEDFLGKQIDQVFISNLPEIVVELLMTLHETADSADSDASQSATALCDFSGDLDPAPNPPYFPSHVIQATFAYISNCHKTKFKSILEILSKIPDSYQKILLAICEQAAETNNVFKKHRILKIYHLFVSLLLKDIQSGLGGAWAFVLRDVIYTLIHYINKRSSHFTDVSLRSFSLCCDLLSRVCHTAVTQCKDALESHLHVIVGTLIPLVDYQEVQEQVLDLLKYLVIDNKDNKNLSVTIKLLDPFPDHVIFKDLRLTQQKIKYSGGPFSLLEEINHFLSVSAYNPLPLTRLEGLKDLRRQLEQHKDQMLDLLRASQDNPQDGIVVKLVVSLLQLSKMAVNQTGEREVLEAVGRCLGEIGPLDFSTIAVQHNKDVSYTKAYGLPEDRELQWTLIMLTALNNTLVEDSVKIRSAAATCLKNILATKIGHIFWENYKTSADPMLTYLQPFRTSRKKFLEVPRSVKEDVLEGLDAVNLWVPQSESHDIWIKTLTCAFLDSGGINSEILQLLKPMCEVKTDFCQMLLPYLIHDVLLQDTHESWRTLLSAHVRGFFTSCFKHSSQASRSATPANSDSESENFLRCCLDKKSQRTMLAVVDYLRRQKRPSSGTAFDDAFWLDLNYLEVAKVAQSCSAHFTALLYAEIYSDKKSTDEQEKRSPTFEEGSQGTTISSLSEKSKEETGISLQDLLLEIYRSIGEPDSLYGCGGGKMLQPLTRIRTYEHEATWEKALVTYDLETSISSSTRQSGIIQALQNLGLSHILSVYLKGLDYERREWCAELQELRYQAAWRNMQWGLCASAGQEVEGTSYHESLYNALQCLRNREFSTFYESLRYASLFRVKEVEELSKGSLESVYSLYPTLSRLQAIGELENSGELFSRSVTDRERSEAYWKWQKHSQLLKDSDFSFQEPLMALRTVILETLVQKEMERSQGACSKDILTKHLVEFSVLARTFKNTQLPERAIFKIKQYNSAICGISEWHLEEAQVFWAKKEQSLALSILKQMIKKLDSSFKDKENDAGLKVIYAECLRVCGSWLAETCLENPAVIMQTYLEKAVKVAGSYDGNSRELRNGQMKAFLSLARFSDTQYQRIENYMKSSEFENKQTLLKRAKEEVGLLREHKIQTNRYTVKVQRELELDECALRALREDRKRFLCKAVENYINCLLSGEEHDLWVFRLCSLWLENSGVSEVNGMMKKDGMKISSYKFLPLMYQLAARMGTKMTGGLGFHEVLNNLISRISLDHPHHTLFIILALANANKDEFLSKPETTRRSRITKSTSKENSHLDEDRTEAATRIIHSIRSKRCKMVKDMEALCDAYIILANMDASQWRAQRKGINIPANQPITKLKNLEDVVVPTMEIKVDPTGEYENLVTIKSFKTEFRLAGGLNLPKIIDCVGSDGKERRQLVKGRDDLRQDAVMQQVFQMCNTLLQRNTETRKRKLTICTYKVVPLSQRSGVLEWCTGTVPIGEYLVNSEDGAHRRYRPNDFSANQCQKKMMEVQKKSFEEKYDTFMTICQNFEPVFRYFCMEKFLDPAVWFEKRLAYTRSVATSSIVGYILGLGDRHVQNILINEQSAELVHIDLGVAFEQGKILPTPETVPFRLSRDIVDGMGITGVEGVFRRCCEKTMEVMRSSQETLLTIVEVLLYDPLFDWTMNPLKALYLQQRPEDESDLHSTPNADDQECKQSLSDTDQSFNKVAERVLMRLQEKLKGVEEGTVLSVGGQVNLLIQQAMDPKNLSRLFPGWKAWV

Legend:
[1] = target: HA-cGAS (in HA-cGAS-reconstituted cGAS−/− immortalized MEFs) (UniProt Q8C6L5); assay: co-IP; anti-HA immunoprecipitates from HA-cGAS-reconstituted cGAS−/− immortalized MEFs with or without doxorubicin (2 μM for 6 h); immunoblot for γH2AX and ATM; RIPA lysis, Dynabeads Protein G
[2] = target: ATM (endogenous, immunoprecipitated from treated cells, Fig. 5i) (UniProt Q13315); assay: co-IP; ATM immunoprecipitated from cells mock treated or treated with CPT 5 μM, etoposide 10 μM or 2 μg cGAMP for 16 h; immunoblot for TBK1; RIPA lysis, Dynabeads Protein G
[3] = target: ATM (endogenous, immunoprecipitated from HEK293-GFP cells) (human (endogenous in HEK293)) (UniProt Q13315); assay: co-IP; endogenous ATM or GFP immunoprecipitated from HEK293-GFP lysate on Dynabeads Protein G, beads washed and incubated with recombinant GST-TBK1 in IP buffer at 30 °C for 1 h, washed 3 times, immunoblot for TBK1; only the binder purified

Molecule | binding [1] | further results
ATM, endogenous in MEFs (from UniProt Q62388 1-3066) (enzyme) | no binding | 
γH2AX (phosphorylated histone H2AX), endogenous in MEFs (from UniProt P27661 1-143) | binds | 
TANK-binding kinase 1 (TBK1), endogenous (Fig. 5i) (enzyme, UniProt Q9UHD2 1-729) MQSTSNHLWLLSDILGQGATANVFRGRHKKTGDLFAIKVFNNISFLRPVDVQMREFEVLKKLNHKNIVKLFAIEEETTTRHKVLIMEFCPCGSLYTVLEEPSNAYGLPESEFLIVLRDVVGGMNHLRENGIVHRDIKPGNIMRVIGEDGQSVYKLTDFGAARELEDDEQFVSLYGTEEYLHPDMYERAVLRKDHQKKYGATVDLWSIGVTFYHAATGSLPFRPFEGPRRNKEVMYKIITGKPSGAISGVQKAENGPIDWSGDMPVSCSLSRGLQVLLTPVLANILEADQEKCWGFDQFFAETSDILHRMVIHVFSLQQMTAHKIYIHSYNTATIFHELVYKQTKIISSNQELIYEGRRLVLEPGRLAQHFPKTTEENPIFVVSREPLNTIGLIYEKISLPKVHPRYDLDGDASMAKAITGVVCYACRIASTLLLYQELMRKGIRWLIELIKDDYNETVHKKTEVVITLDFCIRNIEKTVKVYEKLMKINLEAAELGEISDIHTKLLRLSSSQGTIETSLQDIDSRLSPGGSLADAWAHQEGTHPKDRNVEKLQVLLNCMTEIYYQFKKDKAERRLAYNEEQIHKFDKQKLYYHATKAMTHFTDECVKKYEAFLNKSEEWIRKMLHLRKQLLSLTNQCFDIEEEVSKYQEYTNELQETLPQKMFTASSGIKHTMTPIYPSSNTLVEMTLGMKKLKEEMEGVVKELAENNHILERFGSLTMDGGLRNVDCL |  | binding [2]: binds
recombinant GST-tagged TBK1 (Sigma Cat# SRP5089) (enzyme, UniProt Q9UHD2 1-729) MQSTSNHLWLLSDILGQGATANVFRGRHKKTGDLFAIKVFNNISFLRPVDVQMREFEVLKKLNHKNIVKLFAIEEETTTRHKVLIMEFCPCGSLYTVLEEPSNAYGLPESEFLIVLRDVVGGMNHLRENGIVHRDIKPGNIMRVIGEDGQSVYKLTDFGAARELEDDEQFVSLYGTEEYLHPDMYERAVLRKDHQKKYGATVDLWSIGVTFYHAATGSLPFRPFEGPRRNKEVMYKIITGKPSGAISGVQKAENGPIDWSGDMPVSCSLSRGLQVLLTPVLANILEADQEKCWGFDQFFAETSDILHRMVIHVFSLQQMTAHKIYIHSYNTATIFHELVYKQTKIISSNQELIYEGRRLVLEPGRLAQHFPKTTEENPIFVVSREPLNTIGLIYEKISLPKVHPRYDLDGDASMAKAITGVVCYACRIASTLLLYQELMRKGIRWLIELIKDDYNETVHKKTEVVITLDFCIRNIEKTVKVYEKLMKINLEAAELGEISDIHTKLLRLSSSQGTIETSLQDIDSRLSPGGSLADAWAHQEGTHPKDRNVEKLQVLLNCMTEIYYQFKKDKAERRLAYNEEQIHKFDKQKLYYHATKAMTHFTDECVKKYEAFLNKSEEWIRKMLHLRKQLLSLTNQCFDIEEEVSKYQEYTNELQETLPQKMFTASSGIKHTMTPIYPSSNTLVEMTLGMKKLKEEMEGVVKELAENNHILERFGSLTMDGGLRNVDCL |  | binding [3]: binds
